Measured values from patent US20030044875A1, “Substrate for PP2C” (Schering AG, priority 2001, published 2003).
At least one structure is not confirmed: it was looked up by name or label, or the drawing left a doubt.

Molecular target: T1, PP2Cβ (Bos taurus, UniProt O62830)
T1 construct: inferred from the Ni-NTA purification; made in house; host or cells: E. coli
T1 sequence (O62830 1-484): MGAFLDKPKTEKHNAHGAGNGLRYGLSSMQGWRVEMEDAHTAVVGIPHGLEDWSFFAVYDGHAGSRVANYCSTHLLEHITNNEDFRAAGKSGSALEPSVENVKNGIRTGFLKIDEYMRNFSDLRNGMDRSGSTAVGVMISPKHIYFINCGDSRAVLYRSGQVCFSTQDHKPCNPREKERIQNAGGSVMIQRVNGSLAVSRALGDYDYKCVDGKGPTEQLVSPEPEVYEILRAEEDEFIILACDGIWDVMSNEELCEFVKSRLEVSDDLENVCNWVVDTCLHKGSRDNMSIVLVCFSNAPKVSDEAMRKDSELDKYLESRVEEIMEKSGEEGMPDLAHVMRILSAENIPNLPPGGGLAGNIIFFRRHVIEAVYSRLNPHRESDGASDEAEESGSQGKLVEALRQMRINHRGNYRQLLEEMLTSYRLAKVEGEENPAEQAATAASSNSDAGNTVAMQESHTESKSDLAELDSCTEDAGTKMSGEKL
Experiment: Dephosphorylation of phospho-BAD by PP2Cβ, Mg2+-dependence
Assay type: biochemical, bovine
Conditions: 30 min
Experimental: Dephosphorylation of phospho-BAD by PP2C is assayed in vitro using recombinant BAD (Lizcano, J. M., Morrice, N. and Cohen, P. (2000) Regulation of Bad by cAMP-dependent protein kinase is mediated via phosphorylation of a novel site, Ser^155. Biochem. J. Vol: 349, 547-557) kindly provided by Sir Philip Cohen, Dundee, UK. cDNA encoding PP2Cβ from bovine brain was expressed in E. Coli and purified using Ni-NTA-Sepharose. (J. Neurosci. Res. 51, 328-338 (1998) Protein phosphatase type-2C isozymes present in vertebrate retinae: purification, characterization, and localization in photoreceptors.)
Incubations were carried out for 30 min at 37° C. The reaction mixture (12 μl) contained 12 μg BAD (GST-fusion protein) (Lizcano et al. (2000) Biochem. J. 349, 547-557), 0.55 μg PKA (Sigma), 1 μM ATP, 15 μCi [γ-^32P]ATP, 5 mM MgCl2 and 25 mM Tris/HCl pH 7.5. After incubation at 37° C. for 30 min, hot and cold ATP were removed by centrisep centrifugation columns. This was necessary to avoid continuous phosphorylation upon the second incubation when phosphatase activities were assayed.
The substrate used ([^32P]BAD) was prepared as described above. After the centrisep step, [^32P]BAD was diluted 10-fold using 25 mM Tris/HCl pH 7.5. Incubations (15 μl) were carried out for 30 min at 37° C. (unless mentioned otherwise) with 9 μl [^32P]BAD (0.2 μg), 1.5 μl 10-fold reactionbuffer (200 mM 25 Tris/HCl pH 7.5, 100 mM MgCl2, 10% glycerol, 1% 2-mercaptoethanol), and 0.3 μg of PP2C. The reactions were stopped by the addition of 5 μl of denaturing sample buffer and kept on ice until proteins were separated on 12.5% SDS-PAGE minigels. (De-) Phosphorylation was visualized by autoradiography.
Dephosphorylation of [^32P]BAD depends on the time of incubating PP2Cβ together with the substrate phospho-BAD which is cleaved to give phosphate and BAD. The concentration of [^32P]BAD is measured in this assay, therefore intensive spots on the X-ray sensitive film represent high concentrations of [^32P]BAD, in other words low activity of the enzyme PP2Cβ.

## O=C(O)CN(CCOCCOCCN(CC(=O)O)CC(=O)O)CC(=O)O [EGTA]
5 mmol/l EGTA, PP2Cβ absent
  Value of [^32P]BAD: ++++
5 mmol/l EGTA, PP2Cβ present
  Value of [^32P]BAD: +++

## [Mg+2] [Mg^2+]
0.1 mmol/l Mg2+, PP2Cβ absent
  Value of [^32P]BAD: ++++
0.1 mmol/l Mg2+, PP2Cβ present
  Value of [^32P]BAD: +++
1 mmol/l Mg2+, PP2Cβ absent
  Value of [^32P]BAD: ++++
1 mmol/l Mg2+, PP2Cβ present
  Value of [^32P]BAD: ++
10 mmol/l Mg2+, PP2Cβ absent
  Value of [^32P]BAD: +++
10 mmol/l Mg2+, PP2Cβ present
  Value of [^32P]BAD: +
